The list is a part of this screen's results and no random one: it is rich in T/C values a quarter to a half above the control, in often repeated tests (any T/C) and in doses without a T/C. Further doses and runs are listed elsewhere. T/C is the treated group as % of the vehicle group. Some entries give survivors of the animals treated and no T/C: the source holds a T/C of zero for them, seemingly a mark for toxic or unscored doses. Some doses without a T/C left all or most animals alive at the check, yet need not have been tolerated: the source hardly ever lists a survival T/C far under the control, and the zero likely stands for such cases as well. Survivors were counted at the toxicity check, usually on the fifth day, unless a day is given; later deaths do not show. Schedule codes are those of the source, taken here to give the interval after Q, in days (D) or hours (H), and the number of doses after X. Some entries hold several experiments; their values stand side by side, smallest first. Some schedules carry Z or #; the key to these is not given. Where survival is the endpoint, the PubChem record calls one and a half times the control and up active, and a quarter to a half above the control has no call in these data; cut-offs in other NCI protocols can differ. Some T/C values carry the count of animals alive at the toxicity check (mostly the fifth day); without a count, all were alive then.
Tested on: L1210 leukemia ip in BDF1 mice, survival T/C
Test: NCI In Vivo Anticancer Drug Screen. Data for tumor model L1210 Leukemia (intraperitoneal) in B6D2F1 (BDF1) mice
Details: T/C endpoint: mean survival time, higher T/C = longer survival
[1] = dose: 100.0 mg/kg/injection, schedule: Q01DX001 (ip), vehicle: other
[2] = dose: 400.0 mg/kg/injection, schedule: Q04DX002 (ip), vehicle: Klucel (hydroxypropylcellulose) (HPC)
[3] = dose: 300.0 mg/kg/injection, schedule: Q01DX001 (ip), vehicle: saline
[4] = dose: 400.0 mg/kg/injection, schedule: Q04DX003 (ip), vehicle: Klucel (hydroxypropylcellulose) (HPC)
[5] = dose: 150.0 mg/kg/injection, schedule: Q01DX009 (ip), vehicle: saline
[6] = dose: 200.0 mg/kg/injection, schedule: Q04DX003 (ip), vehicle: saline
[7] = dose: 400.0 mg/kg/injection, schedule: Q01DX001 (ip), vehicle: saline
[8] = dose: 400.0 mg/kg/injection, schedule: Q04DX003 (ip), vehicle: saline
[9] = dose: 180.0 mg/kg/injection, schedule: Q01DX009 (ip), vehicle: saline
[10] = dose: 200.0 mg/kg/injection, schedule: Q04DX002 (ip), vehicle: Klucel (hydroxypropylcellulose) (HPC)
[11] = dose: 100.0 mg/kg/injection, schedule: Q01DX009 (ip), vehicle: carboxymethylcellulose (CMC)

For `O=COCC1CCC(NC(=O)N(CCCl)N=O)CC1` (centres undefined), the T/C (dose: 40.0 mg/kg/injection, schedule: Q01DX001 (ip), vehicle: Klucel (hydroxypropylcellulose) (HPC)) was 147 % of control, the survivor count (dose: 60.0 mg/kg/injection, schedule: Q01DX001 (ip), vehicle: Klucel (hydroxypropylcellulose) (HPC)) was 5 of 9 and the survivor count (dose: 90.0 mg/kg/injection, schedule: Q01DX001 (ip), vehicle: Klucel (hydroxypropylcellulose) (HPC)) was 6 of 9. The survivor count (dose: 133.0 mg/kg/injection, schedule: Q01DX001 (ip), vehicle: Klucel (hydroxypropylcellulose) (HPC)) was 7 of 10, the survivor count (dose: 200.0 mg/kg/injection, schedule: Q01DX001 (ip), vehicle: Klucel (hydroxypropylcellulose) (HPC)) was 3 of 10 and the survivor count (dose: 300.0 mg/kg/injection, schedule: Q01DX001 (ip), vehicle: Klucel (hydroxypropylcellulose) (HPC)) was 1 of 10.

`N#Cc1ccccc1C#N` was tested, and the survivor count [1] was 0 of 6, the survivor count (dose: 100.0 mg/kg/injection, schedule: Q04DX003 (ip), vehicle: saline with Tween-80) was 0 of 3 and the survivor count (dose: 200.0 mg/kg/injection, schedule: Q01DX001 (ip), vehicle: other) was 0 of 6. For the same compound, the survivor count (dose: 200.0 mg/kg/injection, schedule: Q04DX003 (ip), vehicle: saline with Tween-80) was 0 of 3, the survivor count (dose: 400.0 mg/kg/injection, schedule: Q01DX001 (ip), vehicle: other) was 0 of 6 and the survivor count (dose: 400.0 mg/kg/injection, schedule: Q04DX003 (ip), vehicle: saline with Tween-80) was 0 of 3.

With `CSc1nncc(-c2cnnc(SC)n2)n1` the survivor count [2] was 1 of 3.

`CC(C)(C)C#CC#CC(C)(C)C` was tested, and the survivor count (dose: 75.0 mg/kg/injection, schedule: Q01DX001 (ip), vehicle: saline) was 3 of 6, the survivor count (dose: 150.0 mg/kg/injection, schedule: Q01DX001 (ip), vehicle: saline) was 3 of 6 and the survivor count [3] was 1 of 6.

`CN(C)c1ccc(/C=N\NC(=O)c2ccco2)cc1` was tested, and the survivor count [1] was 4 of 4.

With `CC1c2cc(O)c(O)cc2CCN1C` (centres undefined) the survivor count [3] was 1 of 6.

In the case of `N=C(N)c1cccc(NC(=O)c2ccc(C(=O)Nc3cccc(C(=N)N)c3)c(N)c2)c1`, the T/C (dose: 40.0 mg/kg/injection, schedule: Q01DX Z (ip), vehicle: carboxymethylcellulose (CMC)) is reported as 135 % of control.

In the case of `CN=C(NC)c1ccc(Cl)c(Cl)c1`, the survivor count [4] is reported as 3 of 6.

In the case of `BrCc1cccc2ccccc12`, the survivor count [5] is reported as 3 of 6, the survivor count [6] is reported as 6 of 6 and the survivor count (dose: 225.0 mg/kg/injection, schedule: Q01DX009 (ip), vehicle: saline) is reported as 1 of 6. The survivor count (dose: 335.0 mg/kg/injection, schedule: Q01DX009 (ip), vehicle: saline) was 0 of 6 and the survivor count [7] was 0 of 6.

For `O=C1CCCN1.O=C1CCCN1.[Br][Co][Br]`, the T/C [5] was 128 % of control, the survivor count [6] was 3 of 6 and the survivor count (dose: 300.0 mg/kg/injection, schedule: Q01DX009 (ip), vehicle: saline) was 0 of 6. The survivor count [8] was 0 of 6.

With `CC(Cl)CN(CC(C)Cl)c1ccc(S(=O)(=O)Nc2ncccn2)cc1` (centres undefined) the survivor count (dose: 90.0 mg/kg/injection, schedule: Q01DX009 (ip), vehicle: saline) was 0 of 6, the T/C (dose: 120.0 mg/kg/injection, schedule: Q01DX009 (ip), vehicle: saline with Tween-80) was 129 % of control and the T/C (dose: 120.0 mg/kg/injection, schedule: Q01DX009 (ip), vehicle: saline) was 127 % of control. For the same compound, the T/C (dose: 180.0 mg/kg/injection, schedule: Q01DX009 (ip), vehicle: saline with Tween-80) was 126 % of control [4 of 6 alive], the T/C [9] was 106 and 120 % of control and the survivor count [9] was 0 of 6 and 3 of 6. For the same compound, the survivor count (dose: 270.0 mg/kg/injection, schedule: Q01DX009 (ip), vehicle: other) was 2 of 6, the survivor count (dose: 270.0 mg/kg/injection, schedule: Q01DX009 (ip), vehicle: saline) was 3 of 6 and the survivor count (dose: 360.0 mg/kg/injection, schedule: Q01DX009 (ip), vehicle: saline) was 0 of 6 and 1 of 6.

With `NCC(=O)CCS(=O)(=O)c1ccc(Cl)cc1` the survivor count (dose: 100.0 mg/kg/injection, schedule: Q04DX003 (ip), vehicle: saline) was 0 of 6, the survivor count [6] was 1 of 6 and the survivor count [8] was 0 of 6.

`Cc1cc2cc3n(c2nn1)N=CCC3` was tested, and the survivor count (dose: 400.0 mg/kg/injection, schedule: Q04DX002 (ip), vehicle: saline) was 0 of 3.

In the case of `NC(=O)c1ncn(C2OC(CO)C(O)C2O)c1C(N)=O` (centres undefined), the survivor count (dose: 400.0 mg/kg/injection, schedule: Q01DX001 (ip), vehicle: carboxymethylcellulose (CMC)) is reported as 2 of 4.

In the case of `CN1CCC2CCCCC2C1Cc1ccc(Oc2ccc(CC3C4CCCCC4CCN3C)cc2)cc1` (centres undefined), the survivor count (dose: 3.12 mg/kg/injection, schedule: Q04DX002 (ip), vehicle: Klucel (hydroxypropylcellulose) (HPC)) is reported as 1 of 3, the survivor count (dose: 6.25 mg/kg/injection, schedule: Q04DX002 (ip), vehicle: Klucel (hydroxypropylcellulose) (HPC)) is reported as 0 of 3 and the survivor count (dose: 12.5 mg/kg/injection, schedule: Q04DX002 (ip), vehicle: Klucel (hydroxypropylcellulose) (HPC)) is reported as 0 of 3. For the same compound, the survivor count (dose: 25.0 mg/kg/injection, schedule: Q04DX002 (ip), vehicle: Klucel (hydroxypropylcellulose) (HPC)) was 0 of 3, the survivor count (dose: 50.0 mg/kg/injection, schedule: Q04DX002 (ip), vehicle: Klucel (hydroxypropylcellulose) (HPC)) was 0 of 3 and the survivor count (dose: 100.0 mg/kg/injection, schedule: Q04DX002 (ip), vehicle: Klucel (hydroxypropylcellulose) (HPC)) was 0 of 3. The survivor count [10] was 0 of 3 and the survivor count [2] was 0 of 3.

With `Cc1cccc(C)c1NC(=O)NCc1ccco1` the survivor count [10] was 2 of 3 and the survivor count [2] was 0 of 3.

`CCCCCCCCCCCCCC(=O)N(CCCC)CCCC` was tested, and the T/C [11] was 96, 97, 97 % of control [2 of 3 alive], the survivor count [11] was 0 of 6 and the T/C (dose: 200.0 mg/kg/injection, schedule: Q01DX009 (ip), vehicle: carboxymethylcellulose (CMC)) was 93, 95, 96, 103 % of control.

For `OC(CNc1ccc(Cl)cc1)CN1CCCC1` (centres undefined), the survivor count (dose: 150.0 mg/kg/injection, schedule: Q04DX003 (ip), vehicle: saline) was 0 of 6 and the survivor count (dose: 300.0 mg/kg/injection, schedule: Q04DX003 (ip), vehicle: saline) was 0 of 6.

In the case of `Cc1cc(OC(=O)Nc2ccc(Cl)cc2Cl)c(C)cc1Cl`, the survivor count (dose: 50.0 mg/kg/injection, schedule: Q01DX009 (ip), vehicle: saline with Tween-80) is reported as 2 of 3 and the survivor count (dose: 200.0 mg/kg/injection, schedule: Q01DX009 (ip), vehicle: saline with Tween-80) is reported as 3 of 3.

`CCN(CCN)c1cccc(C)c1` was tested, and the survivor count (dose: 200.0 mg/kg/injection, schedule: Q04DX003 (ip), vehicle: saline sonified) was 6 of 6 and the survivor count (dose: 400.0 mg/kg/injection, schedule: Q04DX003 (ip), vehicle: saline sonified) was 0 of 6.

In the case of `C[N+](C)(C)Cc1cccc([N+](=O)[O-])c1`, the survivor count (dose: 100.0 mg/kg/injection, schedule: Q01DX001 (ip), vehicle: saline) is reported as 0 of 4, the survivor count (dose: 200.0 mg/kg/injection, schedule: Q01DX001 (ip), vehicle: saline) is reported as 0 of 4 and the survivor count [7] is reported as 0 of 4.

`O=C(O)CNC(=O)CCl` was tested, and the survivor count (dose: 200.0 mg/kg/injection, schedule: Q01DX009 (ip), vehicle: Klucel (hydroxypropylcellulose) (HPC)) was 0 of 6 and the survivor count [4] was 1 of 6.

`O=C(Nc1cc(NC(=O)Nc2cccc(C3=NCCN3)c2)cc(C(=O)Nc2ccccc2)c1)Nc1cccc(C2=NCCN2)c1` was tested, and the survivor count (dose: 480.0 mg/kg/injection, schedule: Q01DX Z (ip), vehicle: carboxymethylcellulose (CMC)) was 0 of 6.

In the case of `C1=C2CCCCC2OC1` (centres undefined), the survivor count (dose: 300.0 mg/kg/injection, schedule: Q01DX001 (ip), vehicle: carboxymethylcellulose (CMC)) is reported as 0 of 6.
